Measurements as given in PubChem BioAssay AID743255 (National Center for Advancing Translational Sciences (NCATS), 2014).
Out of some 390,000 compounds screened, about 910 (0.23%) were called active. Inconclusive means that the source gave no clear call. Such entries were picked first, then a sample of the others. Calls follow the shape of the dose curve; as a rule, active = well fitted inhibition curve with a large enough effect; inconclusive = small, poorly fitted or top-dose-only effect; inactive = no such curve, though single readings can be large or run the other way. Where the call is inconclusive, the potency comes from a doubtful curve fit.

Protein sequences, listed by entry. Tags and fused reporters are not part of them. Lines headed by an entry give the natural chain unless they say otherwise; changes in a name come on top.
UniProt O94782: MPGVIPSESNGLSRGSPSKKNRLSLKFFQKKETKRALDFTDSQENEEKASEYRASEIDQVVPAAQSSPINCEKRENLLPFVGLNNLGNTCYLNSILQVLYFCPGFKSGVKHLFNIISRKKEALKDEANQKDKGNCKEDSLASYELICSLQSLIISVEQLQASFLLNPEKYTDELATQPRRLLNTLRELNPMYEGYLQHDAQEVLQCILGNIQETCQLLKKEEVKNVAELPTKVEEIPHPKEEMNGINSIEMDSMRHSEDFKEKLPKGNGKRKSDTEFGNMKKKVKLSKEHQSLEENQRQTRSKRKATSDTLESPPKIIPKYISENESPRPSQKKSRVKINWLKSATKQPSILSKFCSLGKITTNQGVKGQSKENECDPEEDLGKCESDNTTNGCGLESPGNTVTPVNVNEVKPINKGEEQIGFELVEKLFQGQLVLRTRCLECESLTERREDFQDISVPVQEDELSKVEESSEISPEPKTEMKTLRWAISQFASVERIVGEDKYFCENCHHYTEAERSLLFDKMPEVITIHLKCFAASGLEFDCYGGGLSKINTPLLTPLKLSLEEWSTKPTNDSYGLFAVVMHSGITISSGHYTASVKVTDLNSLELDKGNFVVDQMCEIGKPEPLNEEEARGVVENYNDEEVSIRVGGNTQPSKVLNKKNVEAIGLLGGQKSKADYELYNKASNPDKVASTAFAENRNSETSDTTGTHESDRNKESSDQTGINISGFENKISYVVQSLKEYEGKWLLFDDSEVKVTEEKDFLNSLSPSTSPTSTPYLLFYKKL

Target: Ubiquitin carboxyl-terminal hydrolase 1 (Homo sapiens) (UniProt O94782)
Assay: Inhibitors of USP1/UAF1: Primary Screen; also: nearly all actives have a fitted effect of over 60% in size
Details: recombinant USP1/UAF1, Ub-Rhodamine cleavage fluorescence; series mostly up to 57.1 µM
How it was run: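 USP1/UAF1 complex (1 nM) preincubated 15 min at room temperature with compound, then Ub-Rho substrate (150 nM final) added. Kinetic fluorescence at 480/540 nm over 6 reads at 60 s intervals; 50 mM HEPES pH 7.8, 0.5 mM EDTA, 0.1 mg/ml BSA, 1 mM TCEP, 0.01% Tween-20.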
Potency is read from the fitted curve at half-maximal effect.

Row | Compound | Potency
1 | CCCCNc1c2c(nc3c(-c4ccccc4)c(C)nn13)CCC2 | inconclusive: 14.1 µM [inhibitor, partial curve]
2 | COc1cccc(C(=O)Nc2ccccc2-c2nnc(-c3cccc(OC)c3)o2)c1 | inconclusive: 112 µM [inhibitor, partial curve, poor fit]
3 | COc1ccccc1NC(=O)Cn1c(=O)n(CCCCCC(=O)NCc2ccccc2)c(=O)c2sccc21 | inconclusive: 56.2 µM [inhibitor, single point]
4 | O=C(COC(=O)c1ccccc1Nc1ccccc1)Nc1ccccc1 | inactive
5 | Cc1nc2c(ccc3nc(NC(=O)Cc4cccc5ccccc45)sc32)s1 | inconclusive: 10 µM [inhibitor, full curve, poor fit]
6 | COc1ccc(S(=O)(=O)N(C)C[C@H]2Oc3ccc(NS(=O)(=O)c4c(C)noc4C)cc3C(=O)N([C@H](C)CO)C[C@@H]2C)cc1 | inconclusive: 5.01 µM [inhibitor, partial curve]
7 | O=S(=O)(c1ccc(-c2ccon2)s1)N1CCCC1 | inconclusive: 12.6 µM [inhibitor, partial curve, poor fit]
8 | COc1cc(NC(=O)COC(=O)c2ccc([N+](=O)[O-])s2)cc(OC)c1OC | inconclusive: 35.5 µM [inhibitor, single point]
9 | Cc1ccc(CN2C(=O)c3ccccc3Sc3ccc(C(=O)OCc4ccco4)cc32)cc1 | inconclusive: 11.2 µM [inhibitor, full curve]
10 | CCOC(=O)c1c(N)sc2c1CCCC2 | inactive
11 | O=C(c1ccc(C(F)(F)F)cc1)N1CCC(=O)N(C(COCc2ccc(C(F)(F)F)cc2)Cc2ccccc2)CC1 (configuration not stated) | inconclusive: 0.316 µM [inhibitor, full curve, poor fit]
12 | COc1ccc2c(c1)NC(c1cccnc1)=NC(c1ccc(F)cc1)=N2 | inconclusive: 44.7 µM [inhibitor, single point]
13 | O=C(Nc1nnc(C2CC2)s1)C1Cc2ccccc2CN1C(=O)c1ccco1 (configuration not stated) | inactive
14 | O=C(CCCN1C(=O)/C(=C\c2cccs2)SC1=S)NNC(=O)c1ccncc1 | inactive
15 | COc1cc(Cl)cc2c1Sc1ccccc1/C2=C/CCN(C)C | inactive
16 | COC(=O)C1CCN(S(=O)(=O)c2cc3c4c(c2)CC(=O)N4CCC3)CC1 | inconclusive: 0.355 µM [inhibitor, full curve]
17 | COc1cccc(C(=O)NC(=S)Nc2ccccc2N2CCCC2)c1 | inconclusive: 2.82 µM [inhibitor, full curve, poor fit]
18 | COc1cccc2cc(C(=O)NNC(=O)c3ccc(Br)cc3)c(=O)oc12 | inconclusive: 0.355 µM [inhibitor, full curve]
19 | COc1ccc(NC(=O)N(C)C[C@H]2Oc3c(NC(=O)NC(C)C)cccc3C(=O)N([C@H](C)CO)C[C@@H]2C)cc1 | inconclusive: 28.2 µM [inhibitor, partial curve]
20 | Nc1ccc(S(=O)(=O)Nc2ccnn2-c2ccccc2)cc1 | inconclusive: 100 µM [inhibitor, partial curve, poor fit]
21 | CC(=O)Nc1ccc(NC(=O)C2CCCN(C(=O)c3ccc(Cl)cc3)C2)cc1 (configuration not stated) | inconclusive: 3.16 µM [inhibitor, partial curve]

Compounds listed so far containing two or more sulfur atoms (four):
Row | Compound | Potency
5 | Cc1nc2c(ccc3nc(NC(=O)Cc4cccc5ccccc45)sc32)s1 | inconclusive: 10 µM [inhibitor, full curve, poor fit]
6 | COc1ccc(S(=O)(=O)N(C)C[C@H]2Oc3ccc(NS(=O)(=O)c4c(C)noc4C)cc3C(=O)N([C@H](C)CO)C[C@@H]2C)cc1 | inconclusive: 5.01 µM [inhibitor, partial curve]
7 | O=S(=O)(c1ccc(-c2ccon2)s1)N1CCCC1 | inconclusive: 12.6 µM [inhibitor, partial curve, poor fit]
14 | O=C(CCCN1C(=O)/C(=C\c2cccs2)SC1=S)NNC(=O)c1ccncc1 | inactive

(more compounds)

Row | Compound | Potency
22 | CC1CCN(C(=O)COC(=O)c2ccc([N+](=O)[O-])o2)CC1 | inconclusive: 0.794 µM [inhibitor, full curve, poor fit]
23 | c1ccc(-c2cc(-c3ccncc3)nc3ccc4ccccc4c23)cc1 | inconclusive: 44.7 µM [inhibitor, partial curve]
24 | COc1ccc(-c2nn(-c3cccc(F)c3)c3c2cnc2cc(OC)c(OC)cc23)cc1 | inactive
25 | COc1ccccc1-c1cc(C(F)(F)F)nc(N2CCCC2)n1 | inactive
26 | COc1cc(C(=O)/C=C/c2cccnc2)c([N+](=O)[O-])cc1OC | inconclusive: 35.5 µM [inhibitor, partial curve]
27 | C=CC(COCc1ccccc1)N(Cc1ccccc1)S(=O)(=O)c1ccccc1Br (configuration not stated) | inconclusive: 3.98 µM [inhibitor, full curve, poor fit]
28 | Cc1ccc(NC(=O)Cn2nnc(C(=O)NCc3ccc4c(c3)OCO4)c2N)cc1Cl | inconclusive: 8.91 µM [inhibitor, partial curve, poor fit]
29 | O=C(c1ccco1)N1N=C(c2ccc(Br)cc2)CC1(O)C(F)(F)F (configuration not stated) | inconclusive: 0.251 µM [inhibitor, full curve, poor fit]
30 | COc1cnc(-c2ccccn2)[nH]c1=O | inactive
31 | CC[N+]1(C)CCC(O)(/C=C/c2ccccc2)C(C(=O)/C=C/c2ccccc2)C1 (configuration not stated) | inconclusive: 70.8 µM [inhibitor, partial curve, poor fit]
32 | CCc1ccc(NC(=O)Cn2cc(S(=O)(=O)N3CCCC3)c(S(=O)(=O)N3CCCC3)c2)cc1 | inconclusive: 15.8 µM [inhibitor, partial curve, poor fit]
33 | CCc1ccc(C2c3[nH]c4ccccc4c3CCN2C(=O)CNC(N)=O)cc1 (configuration not stated) | inconclusive: 2.82 µM [inhibitor, full curve]
34 | COc1cc(OC)c(N(C)C(=O)c2sc3nc4n(c(=O)c3c2C)CCCC4)cc1Cl | inconclusive: 14.1 µM [inhibitor, partial curve]
35 | Oc1ccc(N=Cc2ccc(OCc3ccccc3)cc2)cc1 | active: 2.82 µM
36 | COc1ccc(CN2COc3ccc4c(-c5ccccc5)cc(=O)oc4c3C2)cc1OC | inconclusive: 39.8 µM [inhibitor, partial curve]
37 | O=C(NNC(=O)C1[C@H]2CCCC[C@@H]12)c1ccc(=O)oc1 (some centres not stated) | inconclusive: 50.1 µM [inhibitor, partial curve, poor fit]
38 | CC(NC(=O)Cn1cc(C(=O)C2CC2)c2ccccc21)c1ccccc1 (configuration not stated) | inactive
39 | COc1ccc(NC(=O)c2ccc(Cl)c(S(=O)(=O)N3CCc4ccccc4C3)c2)cn1 | inconclusive: 39.8 µM [inhibitor, single point]
40 | Cn1c(=O)n(CCCc2ccccc2)c(=O)c2c1nc1n2CCN1c1ccc(F)cc1 | inconclusive: 39.8 µM [inhibitor, partial curve, poor fit]
41 | CCc1ccc(-n2c(=O)c3cccnc3n2CC(=O)NCc2ccc(C)cc2)cc1 | inconclusive: 7.94 µM [inhibitor, single point]
42 | COc1cccc(Nc2nc3ccc(C)cc3nc2-n2nc(C)cc2C)c1 | inconclusive: 0.251 µM [inhibitor, full curve, poor fit]

Row | Compound | Potency
43 | Cc1cc(C)n(Cc2ccc(NC(=O)c3nn(C)cc3[N+](=O)[O-])cc2)n1 | inactive
44 | COc1ccc(CCNC(=O)CSc2n[nH]c(-c3ccccc3Cl)n2)cc1OC | inconclusive: 1.26 µM [inhibitor, full curve, poor fit]
45 | COP(=O)(OC)c1nc(-c2cccc3ccccc23)oc1NCc1ccccc1 | inconclusive: 15.8 µM [inhibitor, partial curve]
46 | Cc1cccc(C2(c3cccc(C)c3)CC2C(=O)Nc2ccc([N+](=O)[O-])cc2O)c1 (configuration not stated) | inconclusive: 39.8 µM [inhibitor, partial curve]
47 | CCN1/C(=C/C=C/c2sc3ccccc3[n+]2CC)Sc2ccccc21 | inconclusive: 39.8 µM [inhibitor, partial curve]
48 | COc1cc(NC(=O)c2sc3ncn(CC(=O)N4CCCCC4C)c(=O)c3c2C)cc(OC)c1OC (configuration not stated) | inconclusive: 0.0891 µM [inhibitor, full curve, poor fit]
49 | Cc1ccc(S(=O)(=O)NCc2cccc([N+](=O)[O-])c2)cc1 | inconclusive: 89.1 µM [inhibitor, partial curve, poor fit]
50 | COc1ccccc1N1CCN(CC(O)COc2ccc(C)cc2C(C)(C)C)CC1 (configuration not stated) | inconclusive: 0.251 µM [inhibitor, full curve, poor fit]
51 | O=C(Cn1nc(-c2ccc(Cl)cc2)ccc1=O)NCc1ccc2c(c1)OCO2 | inactive
52 | O=S(=O)(Nc1ccc(Cl)cc1)c1cccc(S(=O)(=O)c2ccc(Cl)c(Cl)c2)c1 | inactive
53 | CCn1c(SCC(N)=O)nc2sc3c(c2c1=O)CCN(C)C3 | inconclusive: 39.8 µM [inhibitor, partial curve, poor fit]
54 | Brc1ccc(CNc2cc3c(cc2Br)OCCO3)cc1 | inconclusive: 8.91 µM [inhibitor, partial curve, poor fit]
55 | N=C1S/C(=C\c2ccc(-c3ccccc3C(=O)O)o2)C(=O)N1c1ccc2c(c1)OCO2 | inconclusive: 28.2 µM [inhibitor, partial curve, poor fit]
56 | COc1ccc(S(=O)(=O)N2CCCCCC2)cc1C(=O)N1CCN(c2ccccc2O)CC1 | inconclusive: 0.282 µM [inhibitor, full curve]
57 | COc1ccc(/C=N/Nc2ncc(-c3ccccc3)cn2)c(OC)c1 | inconclusive: 25.1 µM [inhibitor, single point]
58 | O=C1/C(=C/c2ccccc2)CN(C(=O)CCN2CCOCC2)C/C1=C\c1ccccc1 | inactive
59 | Cc1ccc(C)c(N2CCN(CCCNC(=O)Nc3ccc(Cl)cc3)CC2)c1 | inconclusive: 11.2 µM [inhibitor, full curve, poor fit]
60 | CCc1ccc2nc(N3C(=O)C(O)=C(C(=O)c4ccco4)C3c3cccs3)sc2c1 (configuration not stated) | inconclusive: 39.8 µM [inhibitor, partial curve, poor fit]
61 | CCCN(C(=O)c1cc2c(=O)oc3ccccc3c2s1)c1ccccc1C | inactive
62 | CCOc1ccc2c(c1)c(=O)c(C(=O)c1ccc(CC)cc1)cn2CC(=O)Nc1ccccc1C | inconclusive: 7.94 µM [inhibitor, full curve, poor fit]
